Measured values from the supplement of paper PMC7024190.
Some of the results follow. Repeats in this data set agree poorly, so a single value says little.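 The cells were human embryonic kidney cells carrying a Renilla luciferase gene, driven by the HSV-TK promoter, on a plasmid put in briefly by transfection. This is the first-round screen of about ten thousand compounds, looking for ones that raise reporter output.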

tested on: HEK 293FT; assay: log relative Renilla luciferase luminescence (reporter expression vs reference, reference not stated) (log (base not stated)); higher = higher recombinant reporter expression; details: 10 µM; time after transfection 48 h
Procedure: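 HEK 293FT cells transiently transfected with pRL-TK (Renilla luciferase) were treated with compounds at 10 uM and luminescence was read about 42 h later. Values are log relative Renilla luminescence (log base and reference not stated). Single-pass screen; ICCB Known Bioactives library.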

For `CC[C@H](CO)Nc1nc(NCc2ccccc2)c2ncn(C(C)C)c2n1` [Roscovitine], which log is on record?
Its log is -1.66.

`CC1=C(/C=C/C(C)=C/C=C/C(C)=C/C(=O)O)C(C)(C)CCC1` [Retinoic acid, all trans] was tested. Which log did it give?
The log was -0.305.

How did the log turn out when `COC1=C2C[C@@H](C)C[C@H](OC)[C@H](O)[C@@H](C)/C=C(\C)[C@H](OC(N)=O)[C@@H](OC)/C=C\C=C(/C)C(=O)NC(=CC1=O)C2=O` [Geldanamycin] was run?
The log was 0.21.

Which log does the source give for `CC(C)COCC(CN(Cc1ccccc1)c1ccccc1)N1CCCC1` (stereo unspecified) [Bepridil] here?
Its log is 0.0255.

Which log does the source give for `Cc1ccc(S(=O)(=O)NC(=O)NN2CCCCCC2)cc1` [Tolazamide] here?
The log was 0.0597.

For `CC(C)C[C@@H](/C=C/S(C)(=O)=O)NC(=O)[C@H](CC(C)C)NC(=O)[C@H](CC(C)C)NC(=O)OCc1ccccc1`, which log is on record?
The log was -1.63.
